Patent US20230340419A1, “METHODS FOR GENERATION OF MOUSE AND HUMAN URETERIC BUD ORGANOIDS AND COLLECTING DUCT ORGANOIDS” (University of Southern California, priority 2020, published 2023)
At least one structure is not confirmed: it was looked up by name or label, or the drawing left a doubt.

Tested on: Wnt11-RFP UB organoid
Experiment: Stage III 1st round screening of growth factors and small molecules for UB organoid culture condition
Assay type: cell-based, mouse
Details: reagent added to FGF9 + C3 + TTNPB + GDNF; compared to that control group
Description: We employed this Wnt11-RFP reporter system as a readout to screen for a culture condition that maintained the progenitor identity of UPCs in vitro. T-shaped UBs were manually isolated from E11.5 kidneys of Wnt11-RFP mice, and immediately embedded into Matrigel to set up a 3D culture platform that supported epithelial branching. In this 3D culture format, built on previous efforts towards the ex vivo culture of UB, hundreds of different combinations of growth factors and small molecules were tested (see also the Materials and Techniques section below for details under subheading “Screening for optimal UB culture condition”).
We systematically screened the optimal UB culture condition in four different stages (Stages I-IV).
In Stage III, based on the optimized recipe consisting of FGF9, TTNPB, CHIR99021 (3 μM) and GDNF, we preformed our 1st round of screening of growth factors and small molecules targeting major developmental pathways (e.g. TGF-β, BMP, Wnt, FGF, Hedgehog and Notch) and others. The branching morphogenesis, growth rate and Wnt11-RFP were recorded as readouts (Table 1). […] Representative images were taken at least for LDN193189, A83-01, and R-Spondin 1. […]

| SMILES | Wnt11-RFP |
| --- | --- |
| C=C[C@@]1(C)CC(=O)[C@]2(O)[C@@]3(C)[C@@H](O)CCC(C)(C)[C@@H]3[C@H](O)[C@H](OC(C)=O)[C@@]2(C)O1 [Forskolin] | Worse |
| O=c1cc(N2CCOCC2)oc2c(-c3ccccc3)cccc12 [LY294002] | Better |
